From US12673972B2, “Lung-specific targeting-peptide (LTP), compositions, and uses thereof” (University of Pittsburgh—Of the Commonwealth System of …, priority 2019, dated 2026)

Test system: H9C2 cells
Experiment: Confocal microscopy of H9C2 cells transduced with linear or cyclic CTP
Format: cell-based, rat
Conditions: confocal quantification
From the text: The cardiac targeting peptide (CTP, SEQ ID NO: 3) was cyclized by establishing a chemical bond between the amino and carboxyl termini (between the alpha-amino group of N-terminal Lysine and the C-terminus of the peptide sequence), and subsequently labelled with a Cy5.5 fluorescent label at the epsilon amino group of the N-terminal lysine.
The cyclic form of CTP was then compared to the linear form of CTP using confocal microscopy of transduced H9C2 cells, using the protocol as described in Example 1 above. […] Quantification of the fluorescence intensity, as shown in FIG. 10B and Table 2, confirmed the enhanced fluorescent activity.

| Sequence | Background (fluorescence) |
| --- | --- |
| APWHLSSQYSRT [Linear CTP, cardiac targeting peptide described in WO2019226785A1, parental peptide, reference compound] | 227.701 |
| KAPWHLSSQYSRT (head-to-tail cyclized; Cy5.5 on lysine) [Cyclic CTP, CTP cyclized via N-terminal lysine alpha-amino group to C-terminus, Cy5.5 at lysine epsilon amino group] | 150.467 |
